{"sequences": {"note": "Amino acid sequences for entries named in this document (tags omitted).", "UniProt P03470": "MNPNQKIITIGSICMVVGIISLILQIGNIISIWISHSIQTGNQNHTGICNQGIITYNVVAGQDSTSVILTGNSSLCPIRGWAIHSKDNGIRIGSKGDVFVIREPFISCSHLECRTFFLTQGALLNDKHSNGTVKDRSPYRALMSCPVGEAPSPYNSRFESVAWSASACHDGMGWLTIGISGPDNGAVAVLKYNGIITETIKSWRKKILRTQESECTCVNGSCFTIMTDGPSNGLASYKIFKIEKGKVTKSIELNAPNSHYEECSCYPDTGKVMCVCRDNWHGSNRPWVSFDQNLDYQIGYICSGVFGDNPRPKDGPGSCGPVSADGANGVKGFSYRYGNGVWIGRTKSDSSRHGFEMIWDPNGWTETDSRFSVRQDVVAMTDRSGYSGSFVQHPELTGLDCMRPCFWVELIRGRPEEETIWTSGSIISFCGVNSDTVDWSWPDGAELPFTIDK"}, "source": "paper PMC12550032", "molecular_target": "neuraminidase (NA) of influenza A/WSN/1933 (H1N1) (Influenza A virus A/WSN/1933 (H1N1)) (UniProt P03470)", "assay": "in situ cryo-electron tomography", "note": "Results are given in words; binding and its absence hold for the method and conditions named.", "data": [{"substance": "neuraminidase (NA) of influenza A/WSN/1933 (H1N1) (from UniProt P03470 1-453)", "values": [{"measurement": "binding", "value": "no binding"}]}]}
